Results as given in PubChem BioAssay AID652054 (National Center for Advancing Translational Sciences (NCATS), 2013).
Screen size: about 360,000 compounds; about 9,100 (2.5%) were called active. Inconclusive results, whose numbers are uncertain, are shown with a selection of clear calls. No stated cut-off is given here; in the data, active means max response below about -50%; inconclusive means no clear call, values can overlap the other calls; inactive means above that.

Chains of the proteins cited; added tags and fusions are not shown.
UniProt P35462, whole entry, looked up: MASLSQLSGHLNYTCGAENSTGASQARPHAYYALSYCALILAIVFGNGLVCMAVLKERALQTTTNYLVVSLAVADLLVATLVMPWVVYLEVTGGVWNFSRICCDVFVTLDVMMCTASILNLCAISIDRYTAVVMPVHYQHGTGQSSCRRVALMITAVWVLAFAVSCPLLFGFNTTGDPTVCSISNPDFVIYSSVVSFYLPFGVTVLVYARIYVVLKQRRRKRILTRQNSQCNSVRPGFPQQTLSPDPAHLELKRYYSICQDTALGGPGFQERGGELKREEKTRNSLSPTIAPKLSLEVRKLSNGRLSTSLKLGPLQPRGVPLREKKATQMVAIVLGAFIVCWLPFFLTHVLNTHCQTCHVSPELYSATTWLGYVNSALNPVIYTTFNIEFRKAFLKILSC

These compounds were tested against D(3) dopamine receptor (Homo sapiens) (UniProt P35462) (assay: qHTS of D3 Dopamine Receptor Antagonist: qHTS). Conditions: D3R cells, DiscoveRx beta-arrestin luminescence, antagonist mode; hits give low values.
In short: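 Cells expressing the human receptor were seeded at 1500 cells/well, incubated overnight at 37 degrees C in 5% CO2, then exposed to library compounds with dopamine controls for 90 minutes at 37 degrees C before luminescent detection.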
On the % scale 0 is the no-effect control and ±100 the full control effect.

Compound	max response, negative = inhibition
Cc1cccc(CN2CCC(n3nccc3NC(=O)CCCc3ccccc3)CC2)c1	inconclusive: -38.6%
O=C(Cc1ccccn1)c1ccc(F)cc1	inconclusive: -43.3%
COc1cccc(OCCCCN2CCCCC2)c1	active: -83%
O=C(Nc1nnc(C2CC2)s1)c1cccc(S(=O)(=O)N2CCc3ccccc32)c1	inconclusive: -41.2%
N#Cc1nc(-c2ccccc2F)oc1NCc1cccc2c1OCO2	inconclusive: -37.9%
CC1(C)Cc2c(sc3nc(C4CCCCC4)n(N)c(=O)c23)CO1	inconclusive: -35.2%
CC1(c2ccccc2)CC(C)(C)N2C(=O)/C(=C3\SC(=S)NC3=O)c3cccc1c32 (stereo not given)	inactive: -7.21%
CCSc1n[nH]c2nc3c(c(=O)n12)C1(CCCCC1)Cc1ccccc1-3	inactive: -0.452%
OC(CNC1CCCC1)COc1c(F)cc(Br)cc1F (stereo not given)	inconclusive: -35%
COC(=O)c1ccc(C2Nc3ccccc3NC3=C2C(=O)CC(C)(C)C3)cc1 (stereo not given)	inconclusive: -37.6%
CCOC(=O)[C@]12CCCC=C1N(Cc1ccc(Cl)cc1Cl)C(=O)[C@H](CC(=O)NCc1cccs1)C2	inconclusive: -37.7%
CC1CCCN(C(=O)C2CCCN(S(=O)(=O)c3cccc4nsnc34)C2)C1 (stereo not given)	inactive: 7.53%
OCCN1CCN(C2CCC(c3ccc(F)cc3)c3ccc(F)cc32)CC1 (stereo not given)	active: -62.7%
Cc1ccc(NC(=S)NC(=O)c2ccc(F)cc2)cc1S(=O)(=O)Nc1ccccc1Cl	inconclusive: -33.2%
COc1ccc(CCN(C)C2CCCN(C(=O)CCC(F)(F)F)C2)cc1OC (stereo not given)	inconclusive: -47.2%
CC(C)(C)C(=O)/C=C(\N)c1ccncc1	inconclusive: -49.6%
N#Cc1ccc(OCC(=O)NNC(=S)NC(=O)C2CC2)cc1	inconclusive: -30.8%
C=CCOc1c(CNc2ccc3[nH]c(=O)[nH]c3c2)cccc1OC	inactive: 7.28%
CN(C)/C=C/C(=O)c1ccc(-c2ccc(Cl)cc2Cl)o1	inactive: 6.57%
O=C1C=CC(=O)N1Cc1ccccc1	active: -139%
CCc1ccc(S(=O)(=O)/N=C2\C=C(Nc3cccc(C(=O)O)c3)C(=O)c3ccccc32)cc1	active: -93.3%
COc1ccc(N2C=C3C(=O)C(C)(OC(=O)CCc4ccccc4)C(=O)C=C3C=C2c2ccc(C#N)cc2)cc1 (stereo not given)	inconclusive: -38.3%

Compound	max response, negative = inhibition
Cc1ccccc1C(=O)Oc1cc(N)n(S(=O)(=O)c2ccccc2)n1	inconclusive: -30.2%
CCCc1c(C(=O)NNc2cccc(Cl)c2)cnn1-c1ccccc1	inconclusive: -42.2%
CC(=O)c1cn(CC(=O)NCC2CCCO2)c2ccccc12 (stereo not given)	inconclusive: -36.9%
COc1ccc(OC)c(COC(=O)c2cc([N+](=O)[O-])ccc2N2CCOCC2)c1	inconclusive: -42.4%
C#CCN(Cc1ccco1)C(=O)c1ccc(OC2CCN(Cc3ccccn3)CC2)cc1	inconclusive: -30.9%
NS(=O)(=O)c1ccc(N/N=C/c2ccc[nH]2)c([N+](=O)[O-])c1	inconclusive: -37%
O=C(COC(=O)c1ccc(O)cc1O)NNC(=O)c1cccs1	inconclusive: -30.7%
COc1ccc(C(=O)NCC(=O)OCC(=O)Nc2ccc(C)c(S(=O)(=O)N(C)C)c2)cc1OC	inactive: 0%
Cc1cc(NC(=O)c2ccoc2C)ccc1Br	inactive: -13.4%
CC(C)(C)NC(=O)C(c1ccnc2ccccc12)n1c(=O)c(-c2ccco2)nc2ccccc21 (stereo not given)	inactive: -4.84%
COc1ccc(-c2noc(Cc3cccs3)n2)cc1	inconclusive: -31%
CCCCCCCCNCCS(=O)(=O)NN1CCOCC1	inactive: 35.6%
S=C(NCc1ccco1)NCC(c1ccco1)N1CCCCC1 (stereo not given)	active: -65.8%
CC(C)OC(=O)CN1CCN(S(=O)(=O)c2cc(Cl)ccc2Cl)CC1	inconclusive: -30%
CC[C@]12c3[nH]c4ccc(Cl)cc4c3CCN1C(=O)[C@@H](CC(=O)NCCCN(C)C)C[C@@H]2C(=O)N1CCN(C(=O)c2ccco2)CC1	inactive: 11.7%
Cc1cccc(CN2CCN(C3CN(C4CCCC4)S(=O)(=O)C3)CC2)c1 (stereo not given)	inconclusive: -44.4%
CC(=O)c1ccc(OCCNS(=O)(=O)c2ccc(-n3cnnn3)cc2)cc1	inactive: 0.1%
CC1=C(CC(=O)NCC(=O)NCC(=O)O)c2cc(F)ccc2/C1=C/c1ccc(S(C)=O)cc1 (stereo not given)	inconclusive: -31.1%
Cc1cccc(C(=O)NCCN2CCN(c3ccccc3)CC2)c1	inconclusive: -30.5%
CC(=O)NC(c1ccccc1)c1cc(Cl)c2cccnc2c1O (stereo not given)	inconclusive: -48.8%
CCc1ccc(OC2(C)CCN(CCOc3ccc(C)cc3)C2)cc1 (stereo not given)	active: -75%
O=C(NCC1CCCCC1)c1ccc([N+](=O)[O-])cc1	inconclusive: -31.1%

Shown with bars between the fields: part of the list above
Compound | max response, negative = inhibition
CCCc1c(C(=O)NNc2cccc(Cl)c2)cnn1-c1ccccc1 | inconclusive: -42.2%
COc1ccc(OC)c(COC(=O)c2cc([N+](=O)[O-])ccc2N2CCOCC2)c1 | inconclusive: -42.4%
C#CCN(Cc1ccco1)C(=O)c1ccc(OC2CCN(Cc3ccccn3)CC2)cc1 | inconclusive: -30.9%
COc1ccc(-c2noc(Cc3cccs3)n2)cc1 | inconclusive: -31%
Cc1cccc(CN2CCN(C3CN(C4CCCC4)S(=O)(=O)C3)CC2)c1 (stereo not given) | inconclusive: -44.4%
CC(=O)c1ccc(OCCNS(=O)(=O)c2ccc(-n3cnnn3)cc2)cc1 | inactive: 0.1%

(further entries)

Compound	max response, negative = inhibition
CCCCn1c(N)c(N(CC)C(=O)CCc2ccccc2)c(=O)[nH]c1=O	inconclusive: -31.4%
Cn1c(=N)n(CC(O)c2cccc3ccccc23)c2ccccc21 (stereo not given)	inactive: -8.75%
CC1C(=O)N(Cc2cn(CCC3OCCO3)nn2)CCS(=O)(=O)N1Cc1ccc(-c2ccccc2)cc1 (stereo not given)	inactive: 14.4%
O=C(C(=O)N1CCN(Cc2ccc3c(c2)OCO3)CC1)c1c[nH]c2ccccc12	inconclusive: -31.2%
CCN(CC)C(=O)c1ccc(Nc2nnc(C)c3ccccc23)cc1	inconclusive: -34.3%
CCOC(=O)/C(=N/Nc1ccc(Br)cc1)N1CC(C)OC(C)C1 (stereo not given)	inactive: 5.04%
CSc1ccc(OC2(C)CCN(Cc3ccc(OC(C)C)cc3)C2)cc1 (stereo not given)	inconclusive: -36.1%
CC1CCCCN1S(=O)(=O)c1ccc2[nH]c(=O)cc(C(=O)NCCCN3CCCCCC3)c2c1 (stereo not given)	inactive: -10.6%
C=C1[C@H]2O[C@H]2[C@@H](OC(C)=O)[C@@]2(C)[C@@H](OC(C)=O)C[C@@H](OC(C)=O)[C@@](C)(O)[C@@H]2[C@@H](OC(C)=O)[C@@]2(O)[C@@H](C)C(=O)O[C@H]2[C@H]1Cl	inactive: 0.707%
Cc1cc2cc(CN(Cc3cccs3)C(c3nnnn3C(C)(C)C)C(C)C)c3nnnn3c2cc1C (stereo not given)	inactive: 42.2%
CCN=C(NS(=O)(=O)c1ccc(Br)cc1)c1ccc(Cl)cc1	inactive: -3.69%
O=C(C#Cc1ccccc1)c1ccc([N+](=O)[O-])cc1	active: -71.5%
NC(=O)c1c(NC(NC(=O)c2ccco2)C(=O)c2ccc(Cl)cc2)sc2c1CCCC2 (stereo not given)	inactive: -6.64%
CCCCC[C@@H](C)N1C[C@H](COCc2ccccc2)Oc2cc(N3CCC[C@H]3CO)ccc2S1(=O)=O	inactive: -6.21%
COc1cc(C)nc(OCCNC(=O)COc2ccc(Cl)cc2C)n1	inconclusive: -38.6%
CCN(CC)C(=O)C1CCN(S(=O)(=O)c2ccc3oc4ccccc4c3c2)CC1	inactive: 55.1%
COc1ccc(-c2[nH]c(-c3cccc(OC)c3)nc2SCC(=O)NC2CCCC2)cc1	inconclusive: -32.4%
Cc1ccc(S(=O)(=O)c2c(C)cc(C)nc2Cl)cc1	inactive: 29.1%
COc1ccc(OC)c(-n2c(=S)[nH]c3cc(C(=O)N4CCC(C(N)=O)CC4)ccc3c2=O)c1	inconclusive: -35.4%
Cc1ccc(NC(=O)N2CCSc3ccccc32)cc1	active: -50.5%
COc1cccc(NC(=O)Nc2nc(SC(C)(C)C)ns2)c1	inactive: -1.48%
Cc1ccnc(NC(=S)N2CCN(c3cccc(C(F)(F)F)c3)CC2)c1	inconclusive: -32.8%

Compound	max response, negative = inhibition
CCOc1ccccc1NC(=O)CN(c1nccs1)S(=O)(=O)c1ccc(N)cc1	inconclusive: -31.5%
CC(C)C(CO)NC(=O)CC(=O)NC(CO)C(C)C (stereo not given)	inconclusive: -32.5%
CC(C)c1ccc(CNc2ccc3c(c2)ncn3C)cc1	inactive: 26.1%
O=C(O)CCC(=O)NNC(=O)c1ccc(-c2ccccc2)cc1	inconclusive: -36.4%
CCC(C)NC(=O)CSc1nnc(-c2ccc(C(C)(C)C)cc2)n1C (stereo not given)	inactive: -14.7%
COc1ccc(OCc2cc(C(=O)N3CCC(c4ccccc4)CC3)no2)c(Cl)c1	inactive: 16.5%
CCn1cc(C(c2ccccc2)C(C(C)=O)[N+](=O)[O-])c2ccccc21 (stereo not given)	inactive: -17.4%
COc1cc(/C=N/NC(=O)c2cccc([N+](=O)[O-])c2)ccc1OC(=O)c1ccco1	inconclusive: -34.1%
Clc1ccc2nc(COc3ccccc3)[nH]c2c1	inactive: -14%
CCN1/C(=C2\C(=O)N(C)C(=S)N2c2ccccc2)C=Cc2ccccc21	inconclusive: -31.8%
CCSc1nnc(-c2ccc(S(=O)(=O)NCc3cccs3)cc2)o1	active: -66.4%
CC(=O)O/N=C/c1c(Cl)n(C)c2ccccc12	inconclusive: -42.8%
Cc1ccc(S(=O)(=O)N2CCN(C)CC2)c(C)c1N(C)S(=O)(=O)c1ccc(Cl)cc1	inconclusive: -37.9%
NC(=O)c1cc([N+](=O)[O-])ccc1NCc1ccc(O)cc1	inconclusive: -43.6%
O=C(CN1CCCCC1)NNC(=O)c1cccc(Br)c1	active: -80.3%
CC1CCN(CCCCOc2cccc(Br)c2)CC1	inconclusive: -45.7%
Cc1csc(SCC(=O)NC2CCC(C)CC2)n1 (stereo not given)	inconclusive: -30.6%
CCOCCCN(C)C1CCN(C(=O)c2oc3ccccc3c2NC(=O)Cc2ccc([N+](=O)[O-])cc2)CC1	inconclusive: -41.3%
COc1ccccc1C(=O)NNC(=O)c1nn(Cc2ccccc2)c(=O)c2ccccc12	inconclusive: -43.5%
